Holding throughout (test): affinity purification with mass spectrometry
Test [1] has as its target VEGFR2 (human (endogenous in placental chorionic villi)) (UniProt P35968).
The target of test [2] is T1, MDMX (Double minute 4 protein) (human (endogenous in placental chorionic villi)) (UniProt O15151).
T1 sequence: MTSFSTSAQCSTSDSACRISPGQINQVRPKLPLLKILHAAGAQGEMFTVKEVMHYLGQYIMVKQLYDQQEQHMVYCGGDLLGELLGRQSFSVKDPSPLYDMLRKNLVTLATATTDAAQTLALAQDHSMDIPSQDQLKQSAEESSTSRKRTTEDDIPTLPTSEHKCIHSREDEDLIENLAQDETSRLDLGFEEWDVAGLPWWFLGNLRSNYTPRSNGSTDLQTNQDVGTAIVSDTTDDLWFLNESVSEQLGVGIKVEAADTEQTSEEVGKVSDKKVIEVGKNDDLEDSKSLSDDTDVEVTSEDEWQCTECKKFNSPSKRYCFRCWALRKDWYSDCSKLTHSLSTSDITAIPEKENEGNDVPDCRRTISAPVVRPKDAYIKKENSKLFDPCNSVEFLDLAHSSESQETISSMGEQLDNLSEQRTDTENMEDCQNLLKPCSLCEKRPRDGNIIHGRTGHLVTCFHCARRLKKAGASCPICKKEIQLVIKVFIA

Protein sequences, listed by entry. Tags and fused reporters are not part of them. Residues count along the entry.
UniProt P35968, residues 20-1356: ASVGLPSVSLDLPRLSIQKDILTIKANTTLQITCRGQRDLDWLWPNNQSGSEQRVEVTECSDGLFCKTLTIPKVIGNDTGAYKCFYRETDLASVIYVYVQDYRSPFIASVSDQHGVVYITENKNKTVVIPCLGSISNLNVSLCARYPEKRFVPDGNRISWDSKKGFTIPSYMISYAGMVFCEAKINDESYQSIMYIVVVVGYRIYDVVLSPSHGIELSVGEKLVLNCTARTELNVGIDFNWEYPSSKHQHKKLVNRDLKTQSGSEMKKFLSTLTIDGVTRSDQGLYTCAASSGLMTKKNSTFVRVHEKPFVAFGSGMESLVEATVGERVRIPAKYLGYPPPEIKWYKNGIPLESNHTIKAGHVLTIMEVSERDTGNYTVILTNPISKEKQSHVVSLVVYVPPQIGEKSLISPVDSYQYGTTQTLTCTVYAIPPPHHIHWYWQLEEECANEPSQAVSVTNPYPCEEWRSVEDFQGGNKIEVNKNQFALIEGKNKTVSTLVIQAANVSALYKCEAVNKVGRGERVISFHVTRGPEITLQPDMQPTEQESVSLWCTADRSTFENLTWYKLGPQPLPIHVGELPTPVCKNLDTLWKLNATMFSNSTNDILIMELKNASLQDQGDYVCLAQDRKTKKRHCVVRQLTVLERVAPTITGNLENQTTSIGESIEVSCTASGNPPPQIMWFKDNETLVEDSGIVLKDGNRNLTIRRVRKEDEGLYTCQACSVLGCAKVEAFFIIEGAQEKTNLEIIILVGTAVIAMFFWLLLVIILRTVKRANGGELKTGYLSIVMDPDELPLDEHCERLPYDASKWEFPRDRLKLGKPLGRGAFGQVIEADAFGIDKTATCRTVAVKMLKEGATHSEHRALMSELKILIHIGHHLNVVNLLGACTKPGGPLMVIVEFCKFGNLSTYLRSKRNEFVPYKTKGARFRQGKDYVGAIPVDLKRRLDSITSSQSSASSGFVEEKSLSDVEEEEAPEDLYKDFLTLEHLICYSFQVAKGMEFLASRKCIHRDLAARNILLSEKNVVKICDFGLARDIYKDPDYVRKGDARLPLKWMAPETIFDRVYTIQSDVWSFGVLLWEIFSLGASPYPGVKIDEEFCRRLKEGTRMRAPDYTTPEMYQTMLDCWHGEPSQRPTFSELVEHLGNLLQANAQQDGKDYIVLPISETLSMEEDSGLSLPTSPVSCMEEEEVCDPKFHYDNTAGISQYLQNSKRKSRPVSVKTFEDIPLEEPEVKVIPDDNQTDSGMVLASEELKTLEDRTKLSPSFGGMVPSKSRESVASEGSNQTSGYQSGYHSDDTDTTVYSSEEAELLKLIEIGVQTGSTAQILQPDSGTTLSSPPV

The target of test [3] is T2, PICALM (Phosphatidylinositol-binding clathrin assembly protein) (human (endogenous in placental chorionic villi)) (UniProt Q13492).
T2 sequence: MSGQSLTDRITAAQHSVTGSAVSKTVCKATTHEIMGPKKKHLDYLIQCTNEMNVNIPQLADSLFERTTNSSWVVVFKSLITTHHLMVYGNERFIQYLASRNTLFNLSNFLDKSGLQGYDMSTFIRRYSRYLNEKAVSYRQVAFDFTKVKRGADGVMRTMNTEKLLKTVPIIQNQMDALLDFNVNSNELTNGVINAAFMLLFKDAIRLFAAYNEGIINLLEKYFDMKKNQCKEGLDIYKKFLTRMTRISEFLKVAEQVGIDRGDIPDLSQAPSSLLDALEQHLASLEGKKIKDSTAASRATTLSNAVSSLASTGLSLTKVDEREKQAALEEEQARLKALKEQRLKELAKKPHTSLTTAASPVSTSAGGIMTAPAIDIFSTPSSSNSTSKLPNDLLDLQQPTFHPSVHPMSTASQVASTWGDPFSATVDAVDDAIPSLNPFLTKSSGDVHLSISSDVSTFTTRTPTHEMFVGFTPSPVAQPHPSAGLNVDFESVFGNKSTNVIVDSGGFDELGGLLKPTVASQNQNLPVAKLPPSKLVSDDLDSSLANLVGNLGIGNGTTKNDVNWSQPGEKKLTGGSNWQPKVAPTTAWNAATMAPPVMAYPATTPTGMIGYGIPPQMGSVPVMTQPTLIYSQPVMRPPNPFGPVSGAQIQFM

Results are given in words; binding and its absence hold for the method and conditions named. In cells and extracts the contact can be indirect. These calls come from enrichment with a bait or labelling near it, and not all partners need be listed.

On to “Immunoglobulin heavy constant alpha 1 (IGHA1) (from UniProt P01876-1)”, for which the binding entry in test [1] is on record as “binds”.

B1: PICALM (Phosphatidylinositol-binding clathrin assembly protein) (protein, UniProt Q13492 1-652)
chain: MSGQSLTDRITAAQHSVTGSAVSKTVCKATTHEIMGPKKKHLDYLIQCTNEMNVNIPQLADSLFERTTNSSWVVVFKSLITTHHLMVYGNERFIQYLASRNTLFNLSNFLDKSGLQGYDMSTFIRRYSRYLNEKAVSYRQVAFDFTKVKRGADGVMRTMNTEKLLKTVPIIQNQMDALLDFNVNSNELTNGVINAAFMLLFKDAIRLFAAYNEGIINLLEKYFDMKKNQCKEGLDIYKKFLTRMTRISEFLKVAEQVGIDRGDIPDLSQAPSSLLDALEQHLASLEGKKIKDSTAASRATTLSNAVSSLASTGLSLTKVDEREKQAALEEEQARLKALKEQRLKELAKKPHTSLTTAASPVSTSAGGIMTAPAIDIFSTPSSSNSTSKLPNDLLDLQQPTFHPSVHPMSTASQVASTWGDPFSATVDAVDDAIPSLNPFLTKSSGDVHLSISSDVSTFTTRTPTHEMFVGFTPSPVAQPHPSAGLNVDFESVFGNKSTNVIVDSGGFDELGGLLKPTVASQNQNLPVAKLPPSKLVSDDLDSSLANLVGNLGIGNGTTKNDVNWSQPGEKKLTGGSNWQPKVAPTTAWNAATMAPPVMAYPATTPTGMIGYGIPPQMGSVPVMTQPTLIYSQPVMRPPNPFGPVSGAQIQFM
For the molecule B1, the binding entry in test [2] and in test [1] was “binds” throughout.

B2: PDC-E2 (DLAT), the E2 component of pyruvate dehydrogenase (protein, UniProt P10515 87-647)
chain: SLPPHQKVPLPSLSPTMQAGTIARWEKKEGDKINEGDLIAEVETDKATVGFESLEECYMAKILVAEGTRDVPIGAIICITVGKPEDIEAFKNYTLDSSAAPTPQAAPAPTPAATASPPTPSAQAPGSSYPPHMQVLLPALSPTMTMGTVQRWEKKVGEKLSEGDLLAEIETDKATIGFEVQEEGYLAKILVPEGTRDVPLGTPLCIIVEKEADISAFADYRPTEVTDLKPQVPPPTPPPVAAVPPTPQPLAPTPSAPCPATPAGPKGRVFVSPLAKKLAVEKGIDLTQVKGTGPDGRITKKDIDSFVPSKVAPAPAAVVPPTGPGMAPVPTGVFTDIPISNIRRVIAQRLMQSKQTIPHYYLSIDVNMGEVLLVRKELNKILEGRSKISVNDFIIKASALACLKVPEANSSWMDTVIRQNHVVDVSVAVSTPAGLITPIVFNAHIKGVETIANDVVSLATKAREGKLQPHEFQGGTFTISNLGMFGIKNFSAIINPPQACILAIGASEDKLVPADNEKGFDVASMMSVTLSCDHRVVDGAVGAQWLAEFRKYLEKPITMLL
On to B2, for which the binding result in test [1] is “binds”.

B3: arginase-1 (enzyme, UniProt P05089 1-322)
chain: MSAKSRTIGIIGAPFSKGQPRGGVEEGPTVLRKAGLLEKLKEQECDVKDYGDLPFADIPNDSPFQIVKNPRSVGKASEQLAGKVAEVKKNGRISLVLGGDHSLAIGSISGHARVHPDLGVIWVDAHTDINTPLTTTSGNLHGQPVSFLLKELKGKIPDVPGFSWVTPCISAKDIVYIGLRDVDPGEHYILKTLGIKYFSMTEVDRLGIGKVMEETLSYLLGRKKRPIHLSFDVDGLDPSFTPATGTPVVGGLTYREGLYITEEIYKTGLLSGLDIMEVNPSLGKTPEEVTRTVNTAVAITLACFGLAREGNHKPIDYLNPPK
B3: the binding result in test [2] was “binds”.

B4: Protein-glutamine gamma-glutamyltransferase 2 (TGM2) (enzyme, UniProt P21980 1-687)
chain: MAEELVLERCDLELETNGRDHHTADLCREKLVVRRGQPFWLTLHFEGRNYEASVDSLTFSVVTGPAPSQEAGTKARFPLRDAVEEGDWTATVVDQQDCTLSLQLTTPANAPIGLYRLSLEASTGYQGSSFVLGHFILLFNAWCPADAVYLDSEEERQEYVLTQQGFIYQGSAKFIKNIPWNFGQFEDGILDICLILLDVNPKFLKNAGRDCSRRSSPVYVGRVVSGMVNCNDDQGVLLGRWDNNYGDGVSPMSWIGSVDILRRWKNHGCQRVKYGQCWVFAAVACTVLRCLGIPTRVVTNYNSAHDQNSNLLIEYFRNEFGEIQGDKSEMIWNFHCWVESWMTRPDLQPGYEGWQALDPTPQEKSEGTYCCGPVPVRAIKEGDLSTKYDAPFVFAEVNADVVDWIQQDDGSVHKSINRSLIVGLKISTKSVGRDEREDITHTYKYPEGSSEEREAFTRANHLNKLAEKEETGMAMRIRVGQSMNMGSDFDVFAHITNNTAEEYVCRLLLCARTVSYNGILGPECGTKYLLNLNLEPFSEKSVPLCILYEKYRDCLTESNLIKVRALLVEPVINSYLLAERDLYLENPEIKIRILGEPKQKRKLVAEVSLQNPLPVALEGCTFTVEGAGLTEEQKTVEIPDPVEAGEEVKVRMDLLPLHMGLHKLVVNFESDKLKAVKGFRNVIIGPA
With B4, the binding result in test [2] and in test [3] was “binds” each time.

B5: MDMX (Double minute 4 protein) (protein, UniProt O15151 1-490)
chain: MTSFSTSAQCSTSDSACRISPGQINQVRPKLPLLKILHAAGAQGEMFTVKEVMHYLGQYIMVKQLYDQQEQHMVYCGGDLLGELLGRQSFSVKDPSPLYDMLRKNLVTLATATTDAAQTLALAQDHSMDIPSQDQLKQSAEESSTSRKRTTEDDIPTLPTSEHKCIHSREDEDLIENLAQDETSRLDLGFEEWDVAGLPWWFLGNLRSNYTPRSNGSTDLQTNQDVGTAIVSDTTDDLWFLNESVSEQLGVGIKVEAADTEQTSEEVGKVSDKKVIEVGKNDDLEDSKSLSDDTDVEVTSEDEWQCTECKKFNSPSKRYCFRCWALRKDWYSDCSKLTHSLSTSDITAIPEKENEGNDVPDCRRTISAPVVRPKDAYIKKENSKLFDPCNSVEFLDLAHSSESQETISSMGEQLDNLSEQRTDTENMEDCQNLLKPCSLCEKRPRDGNIIHGRTGHLVTCFHCARRLKKAGASCPICKKEIQLVIKVFIA
With B5, the binding entry in test [1] was “binds”.

For the origin of these results see doi:10.1101/2023.07.23.23292673.
